# According to the supplement of paper PMC8728848:
# Some of the results follow.
# Key:
# Assay in all cases: glycan array binding signal (z-score within array); higher = stronger binding
# Settings in all cases: glycan notation: IUPAC condensed, linker removed; mutation: D21K
# [1] = molecular target: Neu5Ac(a2-3)Gal(b1-4)GlcNAc(b1-2)Man(a1-3)[Neu5Ac(a2-6)Gal(b1-4)GlcNAc(b1-2)Man(a1-6)]Man(b1-4)GlcNAc(b1-4)GlcNAc
# In short: (§1)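 Glycan array binding is given as a within-array Z-score, which can be read as non-binding when negative. The arrays, 3228 of them, came from the Consortium for Functional Glycomics database and were retained only where the protein sequence was available. Z-scores were averaged across arrays of the same protein sequence at different concentrations or buffers and across linkers.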
# [2] = molecular target: Neu5Ac(a2-3)Gal(b1-4)GlcNAc(b1-2)[Neu5Ac(a2-3)Gal(b1-4)GlcNAc(b1-4)]Man(a1-3)[GlcNAc(b1-4)][Neu5Ac(a2-3)Gal(b1-4)GlcNAc(b1-2)[Neu5Ac(a2-3)Gal(b1-4)GlcNAc(b1-6)]Man(a1-6)]Man(b1-4)GlcNAc(b1-4)GlcNAc
# In short: as §1
# [3] = molecular target: Neu5Ac(a2-3)Gal(b1-4)GlcNAc(b1-2)[Neu5Ac(a2-3)Gal(b1-4)GlcNAc(b1-4)]Man(a1-3)[GlcNAc(b1-4)][Neu5Ac(a2-3)Gal(b1-4)GlcNAc(b1-4)Man(a1-6)]Man(b1-4)GlcNAc(b1-4)GlcNAc
# In short: as §1
# [4] = molecular target: Neu5Ac(a2-3)Gal(b1-4)GlcNAc(b1-2)[Neu5Ac(a2-3)Gal(b1-4)GlcNAc(b1-6)]Man(a1-6)[Neu5Ac(a2-3)Gal(b1-4)GlcNAc(b1-2)Man(a1-3)][GlcNAc(b1-4)]Man(b1-4)GlcNAc(b1-4)GlcNAc
# In short: as §1
# [5] = molecular target: Neu5Ac(a2-3)Gal(b1-4)GlcNAc(b1-3)Gal
# In short: as §1
# [6] = molecular target: Neu5Ac(a2-3)Gal(b1-4)GlcNAc(b1-3)Gal(b1-3)GlcNAc
# In short: as §1
# [7] = molecular target: Neu5Ac(a2-3)Gal(b1-4)GlcNAc(b1-3)Gal(b1-4)GlcNAc
# In short: as §1
# [8] = molecular target: Neu5Ac(a2-3)Gal(b1-4)GlcNAc(b1-3)Gal(b1-4)GlcNAc(b1-2)Man(a1-3)[Neu5Ac(a2-3)Gal(b1-4)GlcNAc(b1-3)Gal(b1-4)GlcNAc(b1-2)Man(a1-6)]Man(b1-4)GlcNAc(b1-4)GlcNAc
# In short: as §1
# [9] = molecular target: Neu5Ac(a2-3)Gal(b1-4)GlcNAc(b1-3)Gal(b1-4)GlcNAc(b1-3)Gal(b1-4)GlcNAc
# In short: as §1
# [10] = molecular target: Neu5Ac(a2-3)Gal(b1-4)GlcNAc(b1-3)Gal(b1-4)GlcNAc(b1-3)Gal(b1-4)GlcNAc(b1-2)Man(a1-3)[Neu5Ac(a2-3)Gal(b1-4)GlcNAc(b1-3)Gal(b1-4)GlcNAc(b1-3)Gal(b1-4)GlcNAc(b1-2)Man(a1-6)]GalNAc
# In short: as §1
# [11] = molecular target: Neu5Ac(a2-3)Gal(b1-4)GlcNAc(b1-3)Gal(b1-4)GlcNAc(b1-3)GalNAc
# In short: as §1
# [12] = molecular target: Neu5Ac(a2-3)Gal(b1-4)GlcNAc(b1-3)Gal(b1-4)GlcNAc(b1-3)[Neu5Ac(a2-3)Gal(b1-4)GlcNAc(b1-3)Gal(b1-4)GlcNAc(b1-6)]GalNAc
# In short: as §1
# [13] = molecular target: Neu5Ac(a2-3)Gal(b1-4)GlcNAc(b1-3)Gal(b1-4)GlcNAc(b1-6)[Gal(b1-3)]GalNAc
# In short: as §1
# [14] = molecular target: Neu5Ac(a2-3)Gal(b1-4)GlcNAc(b1-3)Gal(b1-4)[Fuc(a1-3)]GlcNAc
# In short: as §1
# [15] = molecular target: Neu5Ac(a2-3)Gal(b1-4)GlcNAc(b1-3)GalNAc
# In short: as §1
# [16] = molecular target: Neu5Ac(a2-3)Gal(b1-4)GlcNAc(b1-3)[Neu5Ac(a2-3)Gal(b1-4)GlcNAc(b1-6)]GalNAc
# In short: as §1
# [17] = molecular target: Neu5Ac(a2-3)Gal(b1-4)GlcNAc(b1-6)GalNAc
# In short: as §1
# [18] = molecular target: Neu5Ac(a2-3)Gal(b1-4)GlcNAc(b1-6)[Gal(b1-3)]GalNAc
# In short: as §1
# [19] = molecular target: Neu5Ac(a2-3)Gal(b1-4)GlcNAc(b1-6)[Neu5Ac(a2-3)Gal(b1-3)]GalNAc
# In short: as §1
# [20] = molecular target: Neu5Ac(a2-3)Gal(b1-4)GlcNAc6S
# In short: as §1
# [21] = molecular target: Neu5Ac(a2-3)Gal(b1-4)[Fuc(a1-3)]GlcNAc
# In short: as §1
# [22] = molecular target: Neu5Ac(a2-3)Gal(b1-4)[Fuc(a1-3)]GlcNAc(b1-2)Man
# In short: as §1
# [23] = molecular target: Neu5Ac(a2-3)Gal(b1-4)[Fuc(a1-3)]GlcNAc(b1-3)Gal
# In short: as §1
# [24] = molecular target: Neu5Ac(a2-3)Gal(b1-4)[Fuc(a1-3)]GlcNAc(b1-3)Gal(b1-4)GlcNAc
# In short: as §1
# [25] = molecular target: Neu5Ac(a2-3)Gal(b1-4)[Fuc(a1-3)]GlcNAc(b1-3)Gal(b1-4)[Fuc(a1-3)]GlcNAc(b1-3)Gal(b1-4)[Fuc(a1-3)]GlcNAc
# In short: as §1
# [26] = molecular target: Neu5Ac(a2-3)Gal(b1-4)[Fuc(a1-3)]GlcNAc(b1-3)GalNAc
# In short: as §1
# [27] = molecular target: Neu5Ac(a2-3)Gal(b1-4)[Fuc(a1-3)]GlcNAc(b1-6)[Gal(b1-3)]GalNAc
# In short: as §1
# [28] = molecular target: Neu5Ac(a2-3)Gal(b1-4)[Fuc(a1-3)]GlcNAc(b1-6)[Neu5Ac(a2-3)Gal(b1-3)]GalNAc
# In short: as §1
# [29] = molecular target: Neu5Ac(a2-3)Gal(b1-4)[Fuc(a1-3)]GlcNAc6S
# In short: as §1
# [30] = molecular target: Neu5Ac(a2-3)Gal6S(b1-4)GlcNAc
# In short: as §1
# [31] = molecular target: Neu5Ac(a2-3)Gal6S(b1-4)[Fuc(a1-3)]GlcNAc
# In short: as §1
# Neu5Ac(a2-3)GalNAc = molecular target: Neu5Ac(a2-3)GalNAc
# In short: as §1
# [32] = molecular target: Neu5Ac(a2-3)GalNAc(b1-4)GlcNAc
# In short: as §1
# [33] = molecular target: Neu5Ac(a2-3)[GalNAc(b1-4)]Gal(b1-4)Glc
# In short: as §1
# [34] = molecular target: Neu5Ac(a2-3)[GalNAc(b1-4)]Gal(b1-4)GlcNAc
# In short: as §1
# [35] = molecular target: Neu5Ac(a2-3)[GalNAc(b1-4)]Gal(b1-4)GlcNAc(b1-3)GalNAc
# In short: as §1
# [36] = molecular target: Neu5Ac(a2-3)[Neu5Ac(a2-6)]GalNAc
# In short: as §1
# Neu5Ac(a2-6)Gal = molecular target: Neu5Ac(a2-6)Gal
# In short: as §1
# [37] = molecular target: Neu5Ac(a2-6)Gal(b1-3)GlcNAc(b1-3)[Gal(b1-4)GlcNAc(b1-6)]Gal(b1-4)Glc
# In short: as §1
# Neu5Ac(a2-6)Gal(b1-4)Glc = molecular target: Neu5Ac(a2-6)Gal(b1-4)Glc
# In short: as §1
# [38] = molecular target: Neu5Ac(a2-6)Gal(b1-4)GlcNAc
# In short: as §1
# [39] = molecular target: Neu5Ac(a2-6)Gal(b1-4)GlcNAc(b1-2)Man
# In short: as §1
# [40] = molecular target: Neu5Ac(a2-6)Gal(b1-4)GlcNAc(b1-2)Man(a1-3)Man(b1-4)GlcNAc(b1-4)GlcNAc
# In short: as §1
# [41] = molecular target: Neu5Ac(a2-6)Gal(b1-4)GlcNAc(b1-2)Man(a1-3)[Gal(b1-4)GlcNAc(b1-2)Man(a1-6)]Man(b1-4)GlcNAc(b1-4)GlcNAc
# In short: as §1
# [42] = molecular target: Neu5Ac(a2-6)Gal(b1-4)GlcNAc(b1-2)Man(a1-3)[GlcNAc(b1-2)Man(a1-6)]Man(b1-4)GlcNAc(b1-4)GlcNAc
# In short: as §1
# [43] = molecular target: Neu5Ac(a2-6)Gal(b1-4)GlcNAc(b1-2)Man(a1-3)[GlcNAc(b1-4)][Neu5Ac(a2-6)Gal(b1-4)GlcNAc(b1-2)Man(a1-6)]Man(b1-4)GlcNAc(b1-4)GlcNAc
# In short: as §1
# [44] = molecular target: Neu5Ac(a2-6)Gal(b1-4)GlcNAc(b1-2)Man(a1-3)[Man(a1-6)]Man(b1-4)GlcNAc(b1-4)GlcNAc
# In short: as §1
# [45] = molecular target: Neu5Ac(a2-6)Gal(b1-4)GlcNAc(b1-2)Man(a1-3)[Neu5Ac(a2-3)Gal(b1-4)GlcNAc(b1-2)Man(a1-6)]Man(b1-4)GlcNAc(b1-4)GlcNAc
# In short: as §1
# [46] = molecular target: Neu5Ac(a2-6)Gal(b1-4)GlcNAc(b1-2)Man(a1-3)[Neu5Ac(a2-6)Gal(b1-4)GlcNAc(b1-2)Man(a1-6)]Man(b1-4)GlcNAc(b1-4)GlcNAc
# In short: as §1
# [47] = molecular target: Neu5Ac(a2-6)Gal(b1-4)GlcNAc(b1-2)Man(a1-3)[Neu5Ac(a2-6)Gal(b1-4)GlcNAc(b1-2)Man(a1-6)]Man(b1-4)GlcNAc(b1-4)[Fuc(a1-6)]GlcNAc
# In short: as §1
# [48] = molecular target: Neu5Ac(a2-6)Gal(b1-4)GlcNAc(b1-2)Man(a1-6)Man(b1-4)GlcNAc(b1-4)GlcNAc
# In short: as §1
# [49] = molecular target: Neu5Ac(a2-6)Gal(b1-4)GlcNAc(b1-2)Man(a1-6)[Gal(b1-4)GlcNAc(b1-2)Man(a1-3)]Man(b1-4)GlcNAc(b1-4)GlcNAc
# In short: as §1
binder,measurement,setting,value
KILRGVCKKIMRTFLRRISKKILTGKK [C7A (Sus scrofa)],glycan array binding signal (z-score),[1],-1.09
same,glycan array binding signal (z-score),[2],-0.005
same,glycan array binding signal (z-score),[3],0.079
same,glycan array binding signal (z-score),[4],0.142
same,glycan array binding signal (z-score),[5],0.067
same,glycan array binding signal (z-score),[6],-1.04
same,glycan array binding signal (z-score),[7],-0.607
same,glycan array binding signal (z-score),[8],0.393
same,glycan array binding signal (z-score),[9],-0.012
same,glycan array binding signal (z-score),[10],0.291
same,glycan array binding signal (z-score),[11],2.25
same,glycan array binding signal (z-score),[12],-0.329
same,glycan array binding signal (z-score),[13],0.156
same,glycan array binding signal (z-score),[14],0.25
same,glycan array binding signal (z-score),[15],0.438
same,glycan array binding signal (z-score),[16],1.35
same,glycan array binding signal (z-score),[17],1.02
same,glycan array binding signal (z-score),[18],0.167
same,glycan array binding signal (z-score),[19],-0.316
same,glycan array binding signal (z-score),[20],1.56
same,glycan array binding signal (z-score),[21],-0.949
same,glycan array binding signal (z-score),[22],0.621
same,glycan array binding signal (z-score),[23],-0.065
same,glycan array binding signal (z-score),[24],1.51
same,glycan array binding signal (z-score),[25],-0.977
same,glycan array binding signal (z-score),[26],-1.76
same,glycan array binding signal (z-score),[27],1.48
same,glycan array binding signal (z-score),[28],0.403
same,glycan array binding signal (z-score),[29],0.217
same,glycan array binding signal (z-score),[30],0.366
same,glycan array binding signal (z-score),[31],-0.764
same,glycan array binding signal (z-score),Neu5Ac(a2-3)GalNAc,0.178
same,glycan array binding signal (z-score),[32],-0.265
same,glycan array binding signal (z-score),[33],-0.779
same,glycan array binding signal (z-score),[34],-1.31
same,glycan array binding signal (z-score),[35],1.92
same,glycan array binding signal (z-score),[36],0.241
same,glycan array binding signal (z-score),Neu5Ac(a2-6)Gal,0.871
same,glycan array binding signal (z-score),[37],-0.602
same,glycan array binding signal (z-score),Neu5Ac(a2-6)Gal(b1-4)Glc,0.609
same,glycan array binding signal (z-score),[38],0.273
same,glycan array binding signal (z-score),[39],-0.792
same,glycan array binding signal (z-score),[40],0.162
same,glycan array binding signal (z-score),[41],0.649
same,glycan array binding signal (z-score),[42],-0.766
same,glycan array binding signal (z-score),[43],-0.276
same,glycan array binding signal (z-score),[44],0.849
same,glycan array binding signal (z-score),[45],0.295
same,glycan array binding signal (z-score),[46],0.295
same,glycan array binding signal (z-score),[47],1.12
same,glycan array binding signal (z-score),[48],1.56
same,glycan array binding signal (z-score),[49],0.046

# No new results follow: an excerpt of the list.
binder,measurement,setting,value
KILRGVCKKIMRTFLRRISKKILTGKK [C7A (Sus scrofa)],glycan array binding signal (z-score),[7],-0.607
same,glycan array binding signal (z-score),[8],0.393
same,glycan array binding signal (z-score),[9],-0.012
same,glycan array binding signal (z-score),[10],0.291
